Reference: PubChem BioAssay AID504467 (National Center for Advancing Translational Sciences (NCATS), 2011)
Hit rate of the full screen: of about 330,000 compounds, about 7,700 (2.3%) were called active. The inconclusive results got no clear call from the source; some entries with a clear call stand among them for comparison. The call rests on the fitted dose curve; in most records, active means well fitted inhibition curve with a large enough effect; inconclusive means small, poorly fitted or top-dose-only effect, or effect the other way; inactive means flat fitted curve, though single readings scatter. Potencies beside an inconclusive call are fits to weak or partial responses and may not hold up.

Test: qHTS screen for small molecules that inhibit ELG1-dependent DNA repair in human embryonic kidney (HEK293T) cells expressing luciferase-tagged ELG1; further: nearly all actives have a fitted effect of over 55% in size
Settings: HEK293T ELG1-luciferase reporter, luminescence, 16 h, DNA damage induced by 5-fluorouridine; activity change, negative = inhibition: at 46.1 µM (top of the series)
How it was run: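 Cells (2,000 per well) received 5-fluorouridine plus test compound or DMSO and were incubated 16 hr at 37 °C, 5% CO2. Luciferase activity was read by luminescence 30 min after ONE-Glo addition; signal suppression marked inhibition of damage-induced ELG1 function.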
On the % scale 0 is the no-effect control and ±100 the full control effect; potency means the concentration at half of the fitted maximal effect.

Row | Compound | activity change, negative = inhibition | Potency
1 | COc1ccccc1C(CNC(=O)c1cccc(S(=O)(=O)Nc2ccc(F)cc2)c1)N(C)C (stereo unspecified) | inactive: -1.22% | 
2 | CC(C)Cc1nnc(NC(=O)Nc2ccccc2)s1 |  | inconclusive: 16.4 µM [activator, partial curve]
3 | O=C(Cn1cnc2c(NC(=O)OCc3ccccc3)ncnc21)NCCN1CCOCC1 |  | inconclusive: 20.6 µM [activator, single point]
4 | CCOc1cc(C(=O)Nc2ccc(C(=O)NCCN(CC)CC)cc2)ccc1OCC(=O)N1CCOCC1 | inactive: 13.9% | 
5 | CCC(=O)N(Cc1cc2c(C)cc(C)cc2[nH]c1=O)C1CCCCC1 |  | inconclusive: 23.1 µM [inhibitor, single point]
6 | Cc1cc(Nc2ccc(N(C)C)cc2)n2ncnc2n1 |  | inconclusive: 14.6 µM [activator, partial curve]
7 | O=C(NCC1COCCO1)c1cc(COc2c(F)cccc2F)on1 (stereo unspecified) |  | inconclusive: 16.4 µM [activator, single point]
8 | O=C(CSc1nnc(CNC(=O)c2ccco2)o1)Nc1ccc(OC(F)(F)F)cc1 |  | inconclusive: 11.6 µM [activator, partial curve, poor fit]
9 | CC1Sc2ccc(S(=O)(=O)NCc3ccccc3)cc2NC1=O (stereo unspecified) |  | inconclusive: 20.6 µM [inhibitor, single point]
10 | CCN1CCN(c2ccc(S(=O)(=O)N3CCOCC3)cc2NC(=O)c2ccc(Cl)cc2Cl)CC1 | inactive: -10.2% | 
11 | Cc1ccc(CN2CCN(CC(=O)NC(C)CCc3ccccc3)C2=O)cc1 (stereo unspecified) |  | inconclusive: 23.1 µM [inhibitor, partial curve, poor fit]
12 | Nc1nn(-c2ccccc2)nc1C(=O)OCc1ccccc1F | inactive: 21.2% | 
13 | CN(c1ccccc1)S(=O)(=O)c1ccc(C(=O)N2CCc3ccccc3C2)cc1 |  | inconclusive: 20.6 µM [inhibitor, partial curve, poor fit]
14 | CCC(OC(=O)CNS(=O)(=O)c1ccccc1)C(=O)c1ccccc1 (stereo unspecified) | inactive: 7.51% | 
15 | Cc1ccc(-c2nnn(Cc3nc4ccccc4s3)n2)cc1 |  | inconclusive: 25.9 µM [activator, single point]
16 | Cc1cc(C)c2nc(Nc3nc(-c4ccccc4)cc(=O)[nH]3)nc(C)c2c1 |  | inconclusive: 18.3 µM [inhibitor, partial curve]
17 | CC(C)CC(NC(=O)C(NC(=O)C1CCC(=O)N1C(=O)OCc1ccccc1)C(C)C)C(=O)N1CCCC1C(N)=O (stereo unspecified) |  | inconclusive: 18.3 µM [activator, partial curve, poor fit]
18 | CC(=O)N/N=C(\C)c1cccc(C(F)(F)F)c1 | inactive: -12.8% | 
19 | O=C(CSc1ccccn1)Nc1ccc2c(c1)oc1ccccc12 |  | inconclusive: 20.6 µM [activator, partial curve]
20 | CCN(C(=O)CSc1nc2ccccc2c(=O)n1-c1ccccc1F)C1CCS(=O)(=O)C1 (stereo unspecified) | inactive: 25.5% | 
21 | O=C(CCCn1c(=O)c2cccn2c2cccnc21)NCc1cccc(Br)c1 | inactive: -6.45% | 
22 | C=CCNC(=S)N/N=C(\C)c1cccnc1 | inactive: 3.37% | 
23 | Cc1ccc(S(=O)(=O)N2CCN(CN3C(=O)CC4(CCCC4)C3=O)CC2)cc1 | inactive: -0.837% | 

Row | Compound | activity change, negative = inhibition | Potency
24 | CCOC(=O)c1ccc(N2CCCCC2)c(NS(=O)(=O)c2ccc(C)cc2)c1 |  | inconclusive: 23.1 µM [inhibitor, single point]
25 | COc1ccc(NC(=O)CC2C(=O)NCCN2C(=O)Nc2ccc(C(F)(F)F)cc2)cc1 (stereo unspecified) | inactive: -12.7% | 
26 | CC(C)CC(=O)Nc1ccc2ccccc2c1 |  | inconclusive: 9.2 µM [activator, partial curve]
27 | N#CCCN(Cc1ccccc1)C(=S)NC(=O)c1ccccc1 |  | inconclusive: 20.6 µM [inhibitor, single point]
28 | c1ccc2c(c1)c1ccccc1n1c(-c3ccc4c(c3)OCO4)nnc21 |  | inconclusive: 25.9 µM [inhibitor, single point]
29 | Cc1cc2c(cc1C)C(c1cc(Br)ccc1F)CC(=O)N2 (stereo unspecified) |  | inconclusive: 4.61 µM [inhibitor, full curve]
30 | O=C1/C(=C/c2ccncc2)SC(=S)N1Cc1ccccc1 | inactive: 7.07% | 
31 | COc1ccc(N2C(=O)CC(Cc3ccccc3OC)C2=O)cc1 (stereo unspecified) |  | inconclusive: 18.3 µM [inhibitor, single point]
32 | COc1cccc(C(=O)Nc2nc(-c3ccc(S(=O)(=O)N4CCOCC4)cc3)cs2)c1 |  | inconclusive: 5.17 µM [inhibitor, full curve]
33 | CC(C)CCNC(=O)C(=O)Nc1cc2c3c(c1)CC(=O)N3CCC2 |  | inconclusive: 18.3 µM [activator, single point]
34 | O=C(Nc1ccc2ccccc2n1)c1ccc(Cl)cc1 |  | inconclusive: 2.31 µM [activator, partial curve]
35 | CNS(=O)(=O)c1ccc(C(=O)NCC(=O)NC(C)c2cccs2)cc1 (stereo unspecified) | inactive: 0.282% | 
36 | CC(=O)N1CCN(S(=O)(=O)c2cccc(C(=O)OCC(=O)N(Cc3ccccc3)C(C)(C)C)c2)CC1 | inactive: 14.6% | 
37 | O=C(NNC(=O)c1cc(-c2ccncc2)nc2ccccc12)c1ccccc1O |  | inconclusive: 1.64 µM [inhibitor, partial curve, poor fit]
38 | O=C(CSc1nc2ccc(NC(=O)CSc3nnnn3-c3ccccc3)cc2s1)Nc1ccccc1 |  | inconclusive: 6.51 µM [inhibitor, single point]
39 | Cc1ccc(NC(=O)Nc2ccccc2C(N)=O)cc1 |  | inconclusive: 20.6 µM [activator, partial curve]
40 | CCCCN(CC)C(=O)CSc1nc2ccccc2c(=O)n1CC1COc2ccccc2O1 (stereo unspecified) |  | inconclusive: 16.4 µM [inhibitor, partial curve, poor fit]
41 | O=C(O)C1CCN(S(=O)(=O)Cc2ccccc2)CC1 | inactive: -0.11% | 
42 | C=CCn1c(=S)[nH]c2cc(C(=O)Nc3ccc(OC)c(OC)c3)ccc2c1=O | inactive: -0.693% | 
43 | Cc1nc(-c2ccc(C(=O)N3CCOCC3)cc2)cs1 |  | inconclusive: 29.1 µM [activator, single point]
44 | CCOc1ccccc1N1CCN(C(=O)c2cc(C)oc2C)CC1 | inactive: -20% | 
45 | CCc1n(CC(O)COC2CCCCC2)c2ccccc2[n+]1C (stereo unspecified) | inactive: 5.23% | 
46 | CCOc1ccc(NC(=O)C(C)Oc2ccccc2C(=O)Nc2ccc(C)c(Cl)c2)cc1 (stereo unspecified) |  | inconclusive: 20.6 µM [inhibitor, single point]

A few values from the entries so far.
O=C(CSc1nc2ccc(NC(=O)CSc3nnnn3-c3ccccc3)cc2s1)Nc1ccccc1 | Potency: inconclusive: 6.51 µM [inhibitor, single point]
N#CCCN(Cc1ccccc1)C(=S)NC(=O)c1ccccc1 | Potency: inconclusive: 20.6 µM [inhibitor, single point]
O=C(NNC(=O)c1cc(-c2ccncc2)nc2ccccc12)c1ccccc1O | Potency: inconclusive: 1.64 µM [inhibitor, partial curve, poor fit]
